The source of these data is patent US10683327B2 (priority 2015, dated 2020).

The data set in a line: general procedure: solution-phase peptide synthesis; HATU/DIPEA; HBTU/DIPEA; EEDQ; pentafluorophenyl esters. The note with it: for conjugation yield: conjugation step.

Turning to MC-SAA3-SAA3-Val-Cit-APEA-AF, the conjugation yield worked out at 52%.

The substance MC-SAA4-Val-Cit-APEA-AF had a conjugation yield of 70%.

Under “late stage modification step”, MC-SAA1-SAA1-Val-Cit-APEA-AF came in with a step yield of 53%.

Consider MC-SAA3-Val-Cit-APEA-AF, for which the conjugation yield stood at 55%.

Substance Zoptarelin-GA-SAA1-Val-Cit-APEA-AF gave a conjugation yield of 43%.
